{"source": "paper PMC9049863", "about": "(RSC Advances, 2020)", "key": {"[1]": {"tested_on": "adult lymphoblastic leukemia T cells (Jurkat J16)", "assay": "Cytotoxicity against Jurkat J16, resazurin reduction assay", "format": "cell-based", "conditions": "Homo sapiens, 72 h, read-out: IC50, cell viability, Jurkat J16"}, "[2]": {"tested_on": "Burkitt's lymphoma B cells (Ramos)", "assay": "Cytotoxicity against Ramos, resazurin reduction assay", "format": "cell-based", "conditions": "Homo sapiens, 72 h, read-out: IC50, cell viability, Ramos"}}, "data": [{"smiles": "CN[C@@H]1C[C@H]2O[C@@](C)([C@@H]1OC)n1c3ccccc3c3c4c(c5c6ccccc6n2c5c31)C(=O)NC4", "note": "[Staurosporine]", "values": [{"measurement": "IC50", "setting": "[1]", "result": 2.5, "unit": "µM"}, {"measurement": "IC50", "setting": "[2]", "result": 2.5, "unit": "µM"}]}]}
